The text below walks through data of the supplement of paper PMC10849652.

By UniProt entry, the sequences of proteins in these tests, tags left out. Where a name states a change or a piece, a line headed by the entry shows the natural chain unless it says otherwise.
UniProt Q9Y3C8: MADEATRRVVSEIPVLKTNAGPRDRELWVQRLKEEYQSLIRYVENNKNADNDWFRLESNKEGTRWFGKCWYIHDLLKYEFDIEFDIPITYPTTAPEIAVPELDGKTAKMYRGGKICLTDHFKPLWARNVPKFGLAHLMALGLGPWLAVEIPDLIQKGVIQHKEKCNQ
UniProt O14957: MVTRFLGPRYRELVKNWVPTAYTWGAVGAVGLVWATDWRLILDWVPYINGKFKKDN
UniProt Q9NYH9: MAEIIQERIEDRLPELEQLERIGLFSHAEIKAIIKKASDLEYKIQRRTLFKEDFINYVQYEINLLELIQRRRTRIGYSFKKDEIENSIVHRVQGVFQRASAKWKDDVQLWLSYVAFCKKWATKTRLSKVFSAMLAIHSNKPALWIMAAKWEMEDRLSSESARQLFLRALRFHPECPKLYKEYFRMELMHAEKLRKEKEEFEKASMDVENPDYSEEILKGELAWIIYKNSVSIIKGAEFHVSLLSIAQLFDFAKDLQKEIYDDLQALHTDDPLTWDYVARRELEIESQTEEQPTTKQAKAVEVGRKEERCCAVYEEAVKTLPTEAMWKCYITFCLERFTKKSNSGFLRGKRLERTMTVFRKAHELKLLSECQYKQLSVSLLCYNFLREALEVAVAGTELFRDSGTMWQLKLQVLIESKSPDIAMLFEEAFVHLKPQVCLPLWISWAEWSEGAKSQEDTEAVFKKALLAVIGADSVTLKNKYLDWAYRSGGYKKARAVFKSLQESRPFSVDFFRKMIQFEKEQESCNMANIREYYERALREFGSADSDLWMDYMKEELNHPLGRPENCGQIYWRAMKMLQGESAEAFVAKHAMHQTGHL
UniProt P14927: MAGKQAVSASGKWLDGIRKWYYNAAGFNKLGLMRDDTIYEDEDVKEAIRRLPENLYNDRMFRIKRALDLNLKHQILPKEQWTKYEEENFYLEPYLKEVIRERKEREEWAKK
UniProt P07919: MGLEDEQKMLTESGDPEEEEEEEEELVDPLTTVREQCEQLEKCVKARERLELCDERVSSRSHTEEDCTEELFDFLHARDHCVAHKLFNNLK
UniProt Q6BDS2: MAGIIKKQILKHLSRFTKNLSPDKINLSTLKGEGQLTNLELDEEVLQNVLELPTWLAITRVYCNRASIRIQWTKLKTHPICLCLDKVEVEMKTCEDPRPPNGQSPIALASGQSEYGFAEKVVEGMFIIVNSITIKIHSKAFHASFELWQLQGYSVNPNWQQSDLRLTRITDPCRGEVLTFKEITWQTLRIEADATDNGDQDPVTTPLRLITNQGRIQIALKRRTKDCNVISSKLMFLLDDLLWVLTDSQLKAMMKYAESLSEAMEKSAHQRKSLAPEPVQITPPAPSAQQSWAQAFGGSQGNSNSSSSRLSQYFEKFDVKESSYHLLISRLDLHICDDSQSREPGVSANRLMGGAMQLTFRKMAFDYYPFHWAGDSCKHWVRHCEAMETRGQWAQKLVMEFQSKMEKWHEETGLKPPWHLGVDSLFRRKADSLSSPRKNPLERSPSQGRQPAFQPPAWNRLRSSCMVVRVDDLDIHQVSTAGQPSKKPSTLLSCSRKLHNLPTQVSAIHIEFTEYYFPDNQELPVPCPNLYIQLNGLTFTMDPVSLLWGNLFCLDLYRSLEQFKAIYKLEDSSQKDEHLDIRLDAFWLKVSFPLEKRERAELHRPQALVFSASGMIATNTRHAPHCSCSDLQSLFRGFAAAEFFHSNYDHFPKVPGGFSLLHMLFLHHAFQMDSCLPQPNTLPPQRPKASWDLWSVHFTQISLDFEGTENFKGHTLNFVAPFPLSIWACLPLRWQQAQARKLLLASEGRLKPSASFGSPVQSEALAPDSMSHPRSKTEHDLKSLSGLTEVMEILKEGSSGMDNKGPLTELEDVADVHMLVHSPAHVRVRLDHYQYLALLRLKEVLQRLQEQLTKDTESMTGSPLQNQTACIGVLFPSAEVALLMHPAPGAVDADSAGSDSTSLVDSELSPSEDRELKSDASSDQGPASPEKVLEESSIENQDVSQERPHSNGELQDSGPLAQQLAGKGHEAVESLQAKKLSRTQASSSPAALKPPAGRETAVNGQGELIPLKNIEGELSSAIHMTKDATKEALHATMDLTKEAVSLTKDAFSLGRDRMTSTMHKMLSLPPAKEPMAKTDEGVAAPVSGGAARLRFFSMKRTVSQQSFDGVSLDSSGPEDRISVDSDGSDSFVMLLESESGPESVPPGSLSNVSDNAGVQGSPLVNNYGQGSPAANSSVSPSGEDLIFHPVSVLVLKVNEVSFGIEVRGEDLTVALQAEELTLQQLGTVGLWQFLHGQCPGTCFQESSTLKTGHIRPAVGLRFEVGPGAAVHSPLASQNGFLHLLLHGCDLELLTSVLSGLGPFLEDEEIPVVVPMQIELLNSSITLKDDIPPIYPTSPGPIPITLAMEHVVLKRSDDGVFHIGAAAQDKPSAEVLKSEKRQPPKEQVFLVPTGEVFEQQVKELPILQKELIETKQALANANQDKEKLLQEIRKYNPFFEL
UniProt A0JNW5: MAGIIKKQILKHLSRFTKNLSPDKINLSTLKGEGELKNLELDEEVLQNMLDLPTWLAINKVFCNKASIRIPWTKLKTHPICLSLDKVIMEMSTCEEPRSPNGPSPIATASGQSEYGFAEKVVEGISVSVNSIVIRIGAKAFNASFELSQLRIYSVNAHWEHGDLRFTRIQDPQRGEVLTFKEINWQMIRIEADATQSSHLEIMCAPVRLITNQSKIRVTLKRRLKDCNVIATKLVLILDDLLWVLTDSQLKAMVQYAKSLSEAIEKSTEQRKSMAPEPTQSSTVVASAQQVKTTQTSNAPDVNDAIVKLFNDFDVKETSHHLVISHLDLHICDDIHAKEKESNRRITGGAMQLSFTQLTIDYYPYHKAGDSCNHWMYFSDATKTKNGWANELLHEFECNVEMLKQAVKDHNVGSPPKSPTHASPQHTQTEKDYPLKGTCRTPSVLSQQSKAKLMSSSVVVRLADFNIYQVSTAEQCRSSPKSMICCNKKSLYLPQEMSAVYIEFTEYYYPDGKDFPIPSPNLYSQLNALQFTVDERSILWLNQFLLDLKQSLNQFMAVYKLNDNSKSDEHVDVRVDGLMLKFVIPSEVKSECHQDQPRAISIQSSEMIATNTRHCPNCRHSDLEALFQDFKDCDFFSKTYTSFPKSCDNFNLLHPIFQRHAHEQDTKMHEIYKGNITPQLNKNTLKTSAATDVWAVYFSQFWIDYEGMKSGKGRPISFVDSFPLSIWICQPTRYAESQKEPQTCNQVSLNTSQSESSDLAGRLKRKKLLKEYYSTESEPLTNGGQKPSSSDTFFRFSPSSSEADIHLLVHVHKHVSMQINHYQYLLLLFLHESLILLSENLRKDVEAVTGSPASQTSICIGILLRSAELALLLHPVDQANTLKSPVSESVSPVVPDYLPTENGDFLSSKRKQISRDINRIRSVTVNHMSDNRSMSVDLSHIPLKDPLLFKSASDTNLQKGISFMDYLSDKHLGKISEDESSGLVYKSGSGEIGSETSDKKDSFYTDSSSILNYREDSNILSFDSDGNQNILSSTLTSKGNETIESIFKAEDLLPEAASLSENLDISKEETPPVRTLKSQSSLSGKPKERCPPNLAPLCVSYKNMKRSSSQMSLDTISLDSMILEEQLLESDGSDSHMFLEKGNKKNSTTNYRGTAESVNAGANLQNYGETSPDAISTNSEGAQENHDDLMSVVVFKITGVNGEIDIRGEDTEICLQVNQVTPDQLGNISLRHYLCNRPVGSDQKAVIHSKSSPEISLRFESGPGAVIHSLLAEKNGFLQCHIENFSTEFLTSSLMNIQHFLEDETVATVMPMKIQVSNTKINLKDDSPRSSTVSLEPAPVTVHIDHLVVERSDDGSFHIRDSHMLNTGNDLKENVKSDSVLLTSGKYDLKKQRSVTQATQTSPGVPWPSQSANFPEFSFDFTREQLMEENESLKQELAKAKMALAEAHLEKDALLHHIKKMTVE
UniProt Q9H3U1: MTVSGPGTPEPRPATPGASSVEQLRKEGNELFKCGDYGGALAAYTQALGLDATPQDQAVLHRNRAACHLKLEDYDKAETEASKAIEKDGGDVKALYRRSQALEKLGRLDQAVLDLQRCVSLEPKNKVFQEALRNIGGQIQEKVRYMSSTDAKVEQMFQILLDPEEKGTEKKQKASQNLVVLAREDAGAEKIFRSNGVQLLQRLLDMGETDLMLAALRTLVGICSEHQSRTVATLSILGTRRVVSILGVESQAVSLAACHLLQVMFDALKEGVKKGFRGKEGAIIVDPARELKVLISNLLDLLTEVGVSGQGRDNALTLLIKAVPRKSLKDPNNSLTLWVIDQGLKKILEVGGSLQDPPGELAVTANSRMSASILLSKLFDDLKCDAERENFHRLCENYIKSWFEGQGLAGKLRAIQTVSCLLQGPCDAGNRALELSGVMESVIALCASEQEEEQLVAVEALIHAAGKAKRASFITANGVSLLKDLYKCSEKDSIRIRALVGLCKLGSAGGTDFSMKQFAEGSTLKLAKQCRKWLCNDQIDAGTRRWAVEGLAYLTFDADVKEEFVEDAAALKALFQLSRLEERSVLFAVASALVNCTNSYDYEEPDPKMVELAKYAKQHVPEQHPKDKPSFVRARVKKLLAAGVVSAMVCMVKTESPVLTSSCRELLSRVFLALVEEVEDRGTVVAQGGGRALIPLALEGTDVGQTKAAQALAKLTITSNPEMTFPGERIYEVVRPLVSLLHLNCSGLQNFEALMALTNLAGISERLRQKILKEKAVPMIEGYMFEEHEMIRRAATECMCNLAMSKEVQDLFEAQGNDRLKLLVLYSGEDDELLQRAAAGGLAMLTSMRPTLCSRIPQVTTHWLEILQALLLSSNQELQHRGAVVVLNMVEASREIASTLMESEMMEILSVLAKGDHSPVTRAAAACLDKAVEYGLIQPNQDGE
UniProt Q9NYU2: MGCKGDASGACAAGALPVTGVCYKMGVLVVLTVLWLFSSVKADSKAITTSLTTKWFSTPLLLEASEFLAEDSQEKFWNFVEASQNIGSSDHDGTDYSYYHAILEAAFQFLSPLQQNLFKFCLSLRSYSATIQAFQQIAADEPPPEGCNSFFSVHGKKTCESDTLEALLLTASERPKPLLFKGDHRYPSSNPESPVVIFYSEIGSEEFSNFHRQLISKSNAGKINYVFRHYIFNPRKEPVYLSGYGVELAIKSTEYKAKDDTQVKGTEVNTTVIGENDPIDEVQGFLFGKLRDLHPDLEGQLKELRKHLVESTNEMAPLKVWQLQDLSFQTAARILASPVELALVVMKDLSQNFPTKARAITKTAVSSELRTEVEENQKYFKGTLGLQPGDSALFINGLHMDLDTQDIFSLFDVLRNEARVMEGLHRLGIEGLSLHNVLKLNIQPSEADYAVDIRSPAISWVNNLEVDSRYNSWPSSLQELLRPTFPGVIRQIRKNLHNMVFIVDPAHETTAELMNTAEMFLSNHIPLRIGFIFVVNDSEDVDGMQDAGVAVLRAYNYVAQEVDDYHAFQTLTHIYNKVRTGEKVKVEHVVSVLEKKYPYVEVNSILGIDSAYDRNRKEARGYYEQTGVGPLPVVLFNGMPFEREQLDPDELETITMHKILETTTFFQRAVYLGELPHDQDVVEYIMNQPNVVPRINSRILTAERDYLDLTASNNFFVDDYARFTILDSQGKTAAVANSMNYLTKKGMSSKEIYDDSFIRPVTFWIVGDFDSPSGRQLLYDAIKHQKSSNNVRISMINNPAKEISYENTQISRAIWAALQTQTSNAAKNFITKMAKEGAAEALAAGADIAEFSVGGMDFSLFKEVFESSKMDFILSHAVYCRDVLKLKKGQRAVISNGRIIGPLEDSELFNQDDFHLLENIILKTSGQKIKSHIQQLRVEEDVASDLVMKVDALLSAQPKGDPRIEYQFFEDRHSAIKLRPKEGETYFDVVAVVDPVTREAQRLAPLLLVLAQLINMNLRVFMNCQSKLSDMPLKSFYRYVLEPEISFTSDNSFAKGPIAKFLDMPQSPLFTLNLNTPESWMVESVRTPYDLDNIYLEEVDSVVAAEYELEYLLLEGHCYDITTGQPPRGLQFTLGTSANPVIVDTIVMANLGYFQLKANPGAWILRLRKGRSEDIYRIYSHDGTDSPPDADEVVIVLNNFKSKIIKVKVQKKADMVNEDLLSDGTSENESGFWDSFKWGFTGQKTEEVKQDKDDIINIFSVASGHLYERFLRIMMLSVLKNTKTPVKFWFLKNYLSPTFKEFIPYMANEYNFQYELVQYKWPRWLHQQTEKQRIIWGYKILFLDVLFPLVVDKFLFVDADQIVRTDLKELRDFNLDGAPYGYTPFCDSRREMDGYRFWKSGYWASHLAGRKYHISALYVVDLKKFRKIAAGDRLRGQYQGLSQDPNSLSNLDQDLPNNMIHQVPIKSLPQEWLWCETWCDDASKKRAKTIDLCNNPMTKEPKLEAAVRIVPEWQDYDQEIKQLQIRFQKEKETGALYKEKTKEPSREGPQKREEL
UniProt P63027, whole entry, looked up: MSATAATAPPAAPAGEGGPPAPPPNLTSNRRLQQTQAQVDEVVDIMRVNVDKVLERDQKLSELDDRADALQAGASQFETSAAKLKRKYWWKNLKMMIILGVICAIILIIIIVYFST

The other results are listed elsewhere or left out.

Compound in this experiment: Cc1cc(Nc2cc(CN3CCOCC3)c3nc(C)c(Cc4ccc(Cl)cc4F)n3n2)n[nH]1 [gandotinib]
Briefly: log2 fold change, soluble protein after heating vs DMSO (PISA); higher = thermal stabilisation; K562 lysate, 10 uM; active = over 0.2 and 3.5 SD of the protein, either way, in both replicates (recomputed). An outline of the steps:
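A 30 min treatment with 10 μM compound was applied to crude K562 extract at 1 mg/mL protein in PBS pH 7.4 with 1 mM MgCl2. Heating for 3 min spanned 48°C-58°C, after which aliquots were pooled, adjusted to 0.5% NP-40 at 4°C and spun at 21,000xg for 90 min. TMTpro 16plex LC-MS/MS of the supernatant, with channel sums equalised, gave values recorded as log-two fold change in thermal stability against solvent controls, from duplicates.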
Take UGDH (UniProt O60701): the log2 fold change is inactive: -0.067.

Take USP32 (UniProt Q8NFA0): the log2 fold change was inactive: -0.07.

As for VIRMA (UniProt Q69YN4), the log2 fold change is inactive: -0.064.

As to UFD1 isoform 1 (UniProt Q92890), the log2 fold change is inactive: 0.061.

Take VANGL1 (UniProt Q8TAA9): the log2 fold change is inactive: 0.004.

As to VARS2, A0A0G2JL52, the log2 fold change is inactive: 0.041.

Turning to UFC1 (UniProt Q9Y3C8), the log2 fold change was inactive: -0.019.

As to UQCR11 (UniProt O14957), the log2 fold change is inactive: 0.

With UIMC1 (UniProt Q96RL1), the log2 fold change was inactive: 0.034.

Take UTP6 (UniProt Q9NYH9): the log2 fold change is inactive: -0.073.

Regarding UQCRB (UniProt P14927), the log2 fold change was inactive: -0.221.

As for USP5 isoform 2 (UniProt P45974), the log2 fold change was inactive: 0.019.

As to UGGT2 (UniProt Q9NYU1), the log2 fold change is inactive: -0.045.

With UQCRH (UniProt P07919), the log2 fold change was inactive: 0.039.

On to VCP (UniProt P55072), for which the log2 fold change is inactive: -0.02.

UHRF1BP1 (UniProt Q6BDS2): the log2 fold change was inactive: 0.239.

Turning to UNC5B (UniProt Q8IZJ1), the log2 fold change was inactive: -0.094.

As for VCX3B (UniProt Q9H321), the log2 fold change is inactive: 0.072.

On to UHRF1BP1L (UniProt A0JNW5), for which the log2 fold change is inactive: 0.032.

Take UNC45A (UniProt Q9H3U1): the log2 fold change was inactive: -0.111.

With UPF3B (UniProt Q9BZI7), the log2 fold change is inactive: 0.037.

As for UGGT1 (UniProt Q9NYU2), the log2 fold change is inactive: 0.02.

Take VAMP2 (UniProt P63027): the log2 fold change was inactive: -0.057.

For the target USP1 (UniProt O94782), the log2 fold change was inactive: -0.01.
